In the supplement of paper PMC7666118:
The list shows a part of the results.

Chains of the proteins cited; added tags and fusions are not shown. Lines headed by an entry give the natural chain unless they say otherwise; changes in a name come on top.
UniProt Q9BQQ3: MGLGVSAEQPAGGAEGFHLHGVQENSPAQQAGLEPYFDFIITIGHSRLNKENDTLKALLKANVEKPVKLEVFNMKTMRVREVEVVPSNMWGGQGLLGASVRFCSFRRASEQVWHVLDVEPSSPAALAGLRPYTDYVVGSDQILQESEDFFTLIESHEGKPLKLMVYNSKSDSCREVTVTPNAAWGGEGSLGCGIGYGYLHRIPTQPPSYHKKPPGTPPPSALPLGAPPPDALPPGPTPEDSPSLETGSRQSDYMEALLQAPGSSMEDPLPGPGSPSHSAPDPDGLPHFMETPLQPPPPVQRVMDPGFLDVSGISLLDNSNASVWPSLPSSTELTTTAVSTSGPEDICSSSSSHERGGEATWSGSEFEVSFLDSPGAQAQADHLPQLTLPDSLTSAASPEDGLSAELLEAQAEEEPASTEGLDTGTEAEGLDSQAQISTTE
UniProt O43824: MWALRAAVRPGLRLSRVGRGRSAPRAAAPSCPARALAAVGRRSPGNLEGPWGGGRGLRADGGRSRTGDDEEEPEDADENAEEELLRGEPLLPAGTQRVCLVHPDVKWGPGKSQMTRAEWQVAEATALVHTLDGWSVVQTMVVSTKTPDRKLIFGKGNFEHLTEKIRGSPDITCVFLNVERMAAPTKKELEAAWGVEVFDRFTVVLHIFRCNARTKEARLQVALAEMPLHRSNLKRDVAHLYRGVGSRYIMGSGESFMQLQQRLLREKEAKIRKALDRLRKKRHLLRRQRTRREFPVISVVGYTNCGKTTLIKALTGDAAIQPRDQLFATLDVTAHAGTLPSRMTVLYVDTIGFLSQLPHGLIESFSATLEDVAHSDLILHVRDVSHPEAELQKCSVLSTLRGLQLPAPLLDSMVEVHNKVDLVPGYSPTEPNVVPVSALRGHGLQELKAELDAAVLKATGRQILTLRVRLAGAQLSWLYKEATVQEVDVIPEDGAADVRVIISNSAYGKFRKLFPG
UniProt P26583: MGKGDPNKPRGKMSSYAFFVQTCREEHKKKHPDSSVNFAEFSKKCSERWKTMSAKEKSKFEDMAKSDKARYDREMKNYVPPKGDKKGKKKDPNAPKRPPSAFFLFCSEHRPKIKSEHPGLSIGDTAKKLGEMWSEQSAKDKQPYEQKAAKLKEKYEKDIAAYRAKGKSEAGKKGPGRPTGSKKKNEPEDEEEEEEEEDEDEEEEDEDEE
UniProt Q9Y5Z4: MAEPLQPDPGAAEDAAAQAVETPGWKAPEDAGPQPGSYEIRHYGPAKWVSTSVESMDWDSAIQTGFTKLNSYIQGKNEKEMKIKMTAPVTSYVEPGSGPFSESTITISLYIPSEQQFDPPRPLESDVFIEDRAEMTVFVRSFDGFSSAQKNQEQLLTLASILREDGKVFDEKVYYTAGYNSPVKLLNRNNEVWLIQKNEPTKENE
UniProt Q5SSJ5: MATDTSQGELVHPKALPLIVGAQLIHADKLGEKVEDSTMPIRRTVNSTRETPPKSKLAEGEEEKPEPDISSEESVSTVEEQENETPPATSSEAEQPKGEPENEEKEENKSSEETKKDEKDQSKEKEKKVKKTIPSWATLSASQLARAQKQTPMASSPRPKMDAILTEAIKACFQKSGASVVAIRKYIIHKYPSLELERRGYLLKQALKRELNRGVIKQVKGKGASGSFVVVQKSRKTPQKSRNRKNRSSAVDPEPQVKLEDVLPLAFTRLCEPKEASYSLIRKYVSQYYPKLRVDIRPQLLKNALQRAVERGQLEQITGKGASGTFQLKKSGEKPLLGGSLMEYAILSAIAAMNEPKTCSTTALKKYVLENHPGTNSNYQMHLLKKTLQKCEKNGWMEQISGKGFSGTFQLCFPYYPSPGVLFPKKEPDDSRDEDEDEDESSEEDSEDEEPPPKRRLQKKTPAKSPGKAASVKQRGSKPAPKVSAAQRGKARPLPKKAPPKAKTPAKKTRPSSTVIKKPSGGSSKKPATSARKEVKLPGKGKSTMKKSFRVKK
UniProt P22626: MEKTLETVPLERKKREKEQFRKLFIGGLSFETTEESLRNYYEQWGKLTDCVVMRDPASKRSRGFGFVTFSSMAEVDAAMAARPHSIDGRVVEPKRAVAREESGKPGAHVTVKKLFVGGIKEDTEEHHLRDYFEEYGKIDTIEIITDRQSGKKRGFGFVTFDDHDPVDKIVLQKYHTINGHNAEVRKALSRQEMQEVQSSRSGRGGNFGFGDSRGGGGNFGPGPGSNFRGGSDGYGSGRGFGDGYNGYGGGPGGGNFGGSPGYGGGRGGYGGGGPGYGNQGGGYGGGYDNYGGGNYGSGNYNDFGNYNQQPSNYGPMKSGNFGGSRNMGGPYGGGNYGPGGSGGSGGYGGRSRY
UniProt Q9Y5Q8: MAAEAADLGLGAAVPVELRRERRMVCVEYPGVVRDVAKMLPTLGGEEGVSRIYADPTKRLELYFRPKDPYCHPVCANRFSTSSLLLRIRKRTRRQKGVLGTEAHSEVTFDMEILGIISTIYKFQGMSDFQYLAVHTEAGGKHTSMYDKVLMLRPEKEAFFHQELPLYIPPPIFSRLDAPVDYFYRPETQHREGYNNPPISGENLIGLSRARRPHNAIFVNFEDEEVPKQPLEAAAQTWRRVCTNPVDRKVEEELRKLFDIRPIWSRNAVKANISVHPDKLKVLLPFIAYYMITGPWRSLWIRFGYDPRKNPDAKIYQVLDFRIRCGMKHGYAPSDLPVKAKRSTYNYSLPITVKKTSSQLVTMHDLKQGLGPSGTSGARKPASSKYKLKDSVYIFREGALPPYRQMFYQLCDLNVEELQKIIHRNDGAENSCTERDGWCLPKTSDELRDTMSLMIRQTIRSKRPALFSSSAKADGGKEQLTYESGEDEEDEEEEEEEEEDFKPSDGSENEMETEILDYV
UniProt P50747: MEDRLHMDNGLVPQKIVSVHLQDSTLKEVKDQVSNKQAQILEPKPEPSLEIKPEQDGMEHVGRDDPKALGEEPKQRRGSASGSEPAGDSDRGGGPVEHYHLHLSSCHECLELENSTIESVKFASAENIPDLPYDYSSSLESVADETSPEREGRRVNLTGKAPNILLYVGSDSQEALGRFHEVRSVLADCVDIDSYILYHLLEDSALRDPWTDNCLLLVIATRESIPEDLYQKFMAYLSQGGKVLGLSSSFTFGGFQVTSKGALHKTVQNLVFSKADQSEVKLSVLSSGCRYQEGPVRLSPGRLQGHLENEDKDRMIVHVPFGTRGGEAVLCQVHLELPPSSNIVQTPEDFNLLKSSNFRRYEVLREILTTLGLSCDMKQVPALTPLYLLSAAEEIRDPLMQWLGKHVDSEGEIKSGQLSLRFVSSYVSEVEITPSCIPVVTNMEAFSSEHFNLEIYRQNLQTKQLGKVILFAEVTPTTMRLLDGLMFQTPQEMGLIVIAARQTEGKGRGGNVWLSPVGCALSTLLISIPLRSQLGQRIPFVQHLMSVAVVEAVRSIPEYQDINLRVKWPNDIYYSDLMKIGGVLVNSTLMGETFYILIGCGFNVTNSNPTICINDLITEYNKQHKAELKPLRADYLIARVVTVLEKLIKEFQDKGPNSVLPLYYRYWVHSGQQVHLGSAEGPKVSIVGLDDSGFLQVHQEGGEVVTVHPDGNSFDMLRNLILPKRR
UniProt Q9NRZ9: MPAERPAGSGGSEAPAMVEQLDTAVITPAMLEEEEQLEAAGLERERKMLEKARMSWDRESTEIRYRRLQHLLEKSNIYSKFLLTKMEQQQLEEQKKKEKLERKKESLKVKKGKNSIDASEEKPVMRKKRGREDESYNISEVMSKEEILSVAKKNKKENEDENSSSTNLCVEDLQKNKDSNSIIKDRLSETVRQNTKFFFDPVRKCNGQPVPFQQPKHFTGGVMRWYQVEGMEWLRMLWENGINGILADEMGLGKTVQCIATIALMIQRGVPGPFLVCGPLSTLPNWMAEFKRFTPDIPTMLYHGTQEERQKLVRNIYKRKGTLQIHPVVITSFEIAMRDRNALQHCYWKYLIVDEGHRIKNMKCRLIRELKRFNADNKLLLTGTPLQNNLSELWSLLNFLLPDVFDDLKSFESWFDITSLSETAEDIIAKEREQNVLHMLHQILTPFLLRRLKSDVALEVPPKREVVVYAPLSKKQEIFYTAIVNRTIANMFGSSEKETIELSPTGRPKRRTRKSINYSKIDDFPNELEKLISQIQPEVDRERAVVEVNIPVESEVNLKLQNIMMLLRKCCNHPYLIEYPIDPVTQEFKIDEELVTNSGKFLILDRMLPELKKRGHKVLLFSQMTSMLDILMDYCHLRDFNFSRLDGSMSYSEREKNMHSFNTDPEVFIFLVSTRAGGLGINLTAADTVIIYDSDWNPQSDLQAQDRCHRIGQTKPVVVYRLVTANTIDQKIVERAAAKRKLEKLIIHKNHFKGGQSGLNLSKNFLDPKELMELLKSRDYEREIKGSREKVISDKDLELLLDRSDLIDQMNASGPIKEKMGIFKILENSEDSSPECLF
UniProt Q8NBQ5: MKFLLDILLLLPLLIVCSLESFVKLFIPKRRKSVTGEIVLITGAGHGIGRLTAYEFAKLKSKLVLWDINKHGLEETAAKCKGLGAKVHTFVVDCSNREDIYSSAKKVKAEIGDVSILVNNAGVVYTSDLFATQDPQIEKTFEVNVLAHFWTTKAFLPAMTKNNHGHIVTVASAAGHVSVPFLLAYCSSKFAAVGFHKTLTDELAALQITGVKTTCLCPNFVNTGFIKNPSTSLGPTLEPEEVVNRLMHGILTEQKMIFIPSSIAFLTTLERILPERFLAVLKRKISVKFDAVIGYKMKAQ
UniProt Q969Y2: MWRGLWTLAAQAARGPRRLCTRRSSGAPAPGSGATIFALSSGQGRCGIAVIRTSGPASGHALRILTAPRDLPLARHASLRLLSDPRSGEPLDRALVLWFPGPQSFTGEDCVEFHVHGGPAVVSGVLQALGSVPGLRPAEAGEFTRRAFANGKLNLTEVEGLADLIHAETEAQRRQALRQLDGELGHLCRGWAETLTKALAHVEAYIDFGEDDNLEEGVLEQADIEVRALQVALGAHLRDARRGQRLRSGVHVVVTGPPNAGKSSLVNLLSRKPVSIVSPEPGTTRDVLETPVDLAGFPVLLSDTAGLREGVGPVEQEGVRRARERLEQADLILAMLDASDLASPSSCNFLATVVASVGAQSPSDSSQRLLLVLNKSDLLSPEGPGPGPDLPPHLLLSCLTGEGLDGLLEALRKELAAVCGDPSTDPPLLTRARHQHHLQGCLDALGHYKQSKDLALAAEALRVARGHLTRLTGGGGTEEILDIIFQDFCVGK
UniProt P00492: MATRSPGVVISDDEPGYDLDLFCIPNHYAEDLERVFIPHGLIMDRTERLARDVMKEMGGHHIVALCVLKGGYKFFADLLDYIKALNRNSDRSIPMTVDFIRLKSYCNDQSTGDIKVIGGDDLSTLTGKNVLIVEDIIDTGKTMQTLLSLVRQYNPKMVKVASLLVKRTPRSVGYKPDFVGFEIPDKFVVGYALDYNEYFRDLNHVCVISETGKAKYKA
UniProt P30519: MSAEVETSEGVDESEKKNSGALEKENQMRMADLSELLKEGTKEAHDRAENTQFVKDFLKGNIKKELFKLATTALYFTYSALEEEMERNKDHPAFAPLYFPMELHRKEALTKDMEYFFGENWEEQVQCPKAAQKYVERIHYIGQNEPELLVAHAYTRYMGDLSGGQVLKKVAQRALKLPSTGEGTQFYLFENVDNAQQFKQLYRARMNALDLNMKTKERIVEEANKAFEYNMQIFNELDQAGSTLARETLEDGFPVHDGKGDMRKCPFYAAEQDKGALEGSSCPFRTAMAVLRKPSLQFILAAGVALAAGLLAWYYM
UniProt Q6NVY1: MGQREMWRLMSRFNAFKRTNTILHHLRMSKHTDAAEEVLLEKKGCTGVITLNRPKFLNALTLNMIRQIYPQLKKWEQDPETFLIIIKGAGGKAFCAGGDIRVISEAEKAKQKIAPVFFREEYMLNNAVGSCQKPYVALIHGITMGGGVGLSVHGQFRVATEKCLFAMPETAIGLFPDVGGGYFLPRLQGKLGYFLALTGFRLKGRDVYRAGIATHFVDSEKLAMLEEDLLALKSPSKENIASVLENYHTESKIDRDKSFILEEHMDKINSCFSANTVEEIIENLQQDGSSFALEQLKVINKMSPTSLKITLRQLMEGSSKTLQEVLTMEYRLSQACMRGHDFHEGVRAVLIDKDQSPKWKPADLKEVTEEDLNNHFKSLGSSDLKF
UniProt P16403, whole entry: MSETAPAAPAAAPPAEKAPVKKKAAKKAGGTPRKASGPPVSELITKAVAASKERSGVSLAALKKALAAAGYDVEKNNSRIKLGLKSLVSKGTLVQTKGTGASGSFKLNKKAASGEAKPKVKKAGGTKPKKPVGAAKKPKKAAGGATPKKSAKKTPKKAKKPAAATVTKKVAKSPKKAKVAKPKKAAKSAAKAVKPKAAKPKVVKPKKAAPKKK
UniProt Q8TDQ7: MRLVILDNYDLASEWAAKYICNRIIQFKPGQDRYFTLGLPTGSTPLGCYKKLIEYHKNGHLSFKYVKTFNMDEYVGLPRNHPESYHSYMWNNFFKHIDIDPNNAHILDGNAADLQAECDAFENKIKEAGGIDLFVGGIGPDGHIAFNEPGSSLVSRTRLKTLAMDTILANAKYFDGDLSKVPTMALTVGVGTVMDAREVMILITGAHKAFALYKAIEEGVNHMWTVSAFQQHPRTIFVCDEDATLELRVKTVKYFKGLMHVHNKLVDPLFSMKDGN

compound: COc1ccc(Cn2ccc3cc(C)c(C(=O)NO)cc32)cc1; experiment: dose-dependent thermal stabilisation call (2D-TPP, DLPTP, 10% FDR) (binary (1 = stabilised)); higher = stabilised by the compound; conditions: system: HL-60 intact cells; concentration range 0.04-10 µM
Experimental: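 2D thermal proteome profiling in intact HL-60 cells treated with BRD-3811 (0, 0.04, 0.29, 2, 10 uM) for 90 min at 37 C, then heated 3 min at one of 12 temperatures (42-63.9 C). Soluble protein was quantified by TMT10 MS. The value is the DLPTP call of the paper: dose-dependent thermal stabilisation over all temperatures at 10% FDR (F-test of a dose-response against a flat model); one experiment, one call per tested protein.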

Row | Target | dose-dependent thermal stabilisation call
1 | GORASP1 (UniProt Q9BQQ3) | inactive: 0
2 | HNRNPH2 (UniProt P55795) | inactive: 0
3 | GRN (UniProt P28799) | inactive: 0
4 | GTPBP6 (UniProt O43824) | inactive: 0
5 | HMGB2 (UniProt P26583) | inactive: 0
6 | HEBP2 (UniProt Q9Y5Z4) | inactive: 0
7 | HEATR1 (UniProt Q9H583) | inactive: 0
8 | HCCA2 | inactive: 0
9 | H6PD (UniProt O95479) | inactive: 0
10 | HK2 (UniProt P52789) | inactive: 0
11 | HP1BP3 (UniProt Q5SSJ5) | inactive: 0
12 | HNRNPA2B1 (UniProt P22626) | inactive: 0
13 | GTF3C5 (UniProt Q9Y5Q8) | inactive: 0
14 | HADHA (UniProt P40939) | inactive: 0
15 | GPATCH8 (UniProt Q9UKJ3) | inactive: 0
16 | HLCS (UniProt P50747) | inactive: 0
17 | GNPTAB (UniProt Q3T906) | inactive: 0
18 | GUSB (UniProt P08236) | inactive: 0
19 | GTPBP2 (UniProt Q9BX10) | inactive: 0
20 | HELLS (UniProt Q9NRZ9) | inactive: 0

Quoted at random: 2 records from the list
Row | Target | dose-dependent thermal stabilisation call
19 | GTPBP2 (UniProt Q9BX10) | inactive: 0
1 | GORASP1 (UniProt Q9BQQ3) | inactive: 0

Later entries

Row | Target | dose-dependent thermal stabilisation call
21 | GOLM1 (UniProt Q8NBJ4) | inactive: 0
22 | HPS3 (UniProt Q969F9) | inactive: 0
23 | HEL308 (UniProt Q8TDG4) | inactive: 0
24 | GPATCH1 (UniProt Q9BRR8) | inactive: 0
25 | HSD17B11 (UniProt Q8NBQ5) | inactive: 0
26 | GTPBP3 (UniProt Q969Y2) | inactive: 0
27 | HPRT1 (UniProt P00492) | inactive: 0
28 | GNL2 (UniProt Q13823) | inactive: 0
29 | HSP90AB1 (UniProt P08238) | inactive: 0
30 | HMOX2 (UniProt P30519) | active: 1
31 | HIBCH (UniProt Q6NVY1) | inactive: 0
32 | HRAS (UniProt P01112) | inactive: 0
33 | HIST1H1C (UniProt P16403) | inactive: 0
34 | HCLS1 (UniProt P14317) | inactive: 0
35 | HMGN4 (UniProt O00479) | inactive: 0
36 | GNPDA2 (UniProt Q8TDQ7) | inactive: 0
37 | HIST1H4A (UniProt P62805) | inactive: 0
38 | GTPBP4 (UniProt Q9BZE4) | inactive: 0
39 | GUF1 (UniProt Q8N442) | inactive: 0
40 | HEXA (UniProt P06865) | inactive: 0
